Experimental findings from article PMC5741267 are described below.

For assay [1], the target named is T1, PUF repeats of FBF-1 (a.a. 121-614) fused to LexA DNA binding domain (C. elegans) (UniProt Q9N5M6).
T1 sequence: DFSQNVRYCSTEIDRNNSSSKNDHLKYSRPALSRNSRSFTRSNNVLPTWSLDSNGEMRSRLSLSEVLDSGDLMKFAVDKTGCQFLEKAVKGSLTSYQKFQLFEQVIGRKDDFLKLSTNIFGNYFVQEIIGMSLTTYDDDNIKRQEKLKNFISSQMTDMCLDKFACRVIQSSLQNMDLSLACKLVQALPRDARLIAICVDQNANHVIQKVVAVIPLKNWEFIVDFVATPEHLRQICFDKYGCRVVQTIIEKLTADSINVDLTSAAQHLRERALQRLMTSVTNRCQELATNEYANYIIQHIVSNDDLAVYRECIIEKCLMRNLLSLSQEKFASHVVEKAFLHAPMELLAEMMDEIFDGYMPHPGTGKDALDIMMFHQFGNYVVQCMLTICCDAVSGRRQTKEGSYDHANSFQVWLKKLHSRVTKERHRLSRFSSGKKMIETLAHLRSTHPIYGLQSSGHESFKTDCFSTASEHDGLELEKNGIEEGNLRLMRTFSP
The experiment in a line: two-hybrid; SYGL-1 or LST-1 fused to Gal4 AD, PUF repeats of FBF-1 or FBF-2 fused to LexA BD; L40-ura yeast; growth on SD -Leu -Trp -His with 50 mM 3-AT, 4 days at 30°C (HIS3 reporter).

Assay [2] addresses T2, PUF repeats of FBF-2 (a.a. 121-632) fused to LexA DNA binding domain (C. elegans) (UniProt Q09312).
T2 sequence: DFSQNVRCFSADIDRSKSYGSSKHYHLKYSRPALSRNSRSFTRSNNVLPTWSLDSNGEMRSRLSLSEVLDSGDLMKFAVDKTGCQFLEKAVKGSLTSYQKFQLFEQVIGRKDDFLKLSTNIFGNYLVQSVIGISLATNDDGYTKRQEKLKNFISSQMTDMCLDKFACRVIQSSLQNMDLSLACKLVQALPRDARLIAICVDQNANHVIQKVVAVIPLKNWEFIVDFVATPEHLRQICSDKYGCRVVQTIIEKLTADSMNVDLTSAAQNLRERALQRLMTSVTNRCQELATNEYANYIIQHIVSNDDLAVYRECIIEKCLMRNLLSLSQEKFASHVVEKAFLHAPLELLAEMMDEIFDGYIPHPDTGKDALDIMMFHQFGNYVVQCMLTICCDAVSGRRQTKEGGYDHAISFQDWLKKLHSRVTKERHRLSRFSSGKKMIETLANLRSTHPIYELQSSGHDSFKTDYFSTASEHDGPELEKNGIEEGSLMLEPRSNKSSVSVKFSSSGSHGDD
Described as above.

These are yes or no findings as the source states them, for the method shown. A result given as binding can be weak or reduced; the word gives no strength. Where a sequence is shown, tags or fusion partners need not be part of it.

For “SYGL-1 full length (a.a. 1-206) fused to Gal4 activation domain (from UniProt O45868)”, the binding result in assay [1] and in assay [2] was “binds” in each case.
